{"source": "the supplement of paper PMC11438910", "binders": {"B1": {"name": "4-99.5 (protein)", "chain 1": "QVQLQESGPGLVKPSETLSLTCAVSGYSISSGYYWGWIRQPPGKGLEYIGYISGSSGSPYYNPSLKSRVTISKDTSKNQFSLKLSSATAADTAVYYCARRQVGIGFDYWGQGVLVTVSS", "chain 2": "QAAPTQPPSVSGSPGQSVTISCTGTSSDIGYYNAVSWYQQHPGKAPKLMIYEVSKRPSGVSDRFSGSKSGNTASLTISGLQAEDEADYYCSSYAGSNTYIFGAGTRLTVL"}}, "experiment_in_all_cases": "fluorescence intensity of antibody binding to polysaccharide-coupled beads; higher = stronger binding", "key": {"[1]": {"target": "pneumococcal polysaccharide Pn11F", "procedure": "(§1)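 Recombinant rhesus-murine chimeric IgG1 antibodies were tested against antigen-coupled MagPlex beads in a 96-plex Luminex direct immunoassay (dLIA). The beads carried pneumococcal capsular polysaccharides of 93 serotypes plus C-polysaccharides. Antibody was added at 0.1–12,500 ng/mL for 1 h, then PE anti-mouse IgG, and net MFI was read on a Bio-Plex 3D. Only the rhesus variable regions are printed; constant regions are murine IgG1/kappa/lambda, and the signal peptide is MGWSCIILFLVATATGVHS.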"}, "[2]": {"target": "pneumococcal polysaccharide Pn12A", "procedure": "as §1"}, "[3]": {"target": "pneumococcal polysaccharide Pn12B", "procedure": "as §1"}, "[4]": {"target": "pneumococcal polysaccharide Pn12F", "procedure": "as §1"}, "[5]": {"target": "pneumococcal polysaccharide Pn13", "procedure": "as §1"}, "[6]": {"target": "pneumococcal polysaccharide Pn14", "procedure": "as §1"}, "[7]": {"target": "pneumococcal polysaccharide Pn15A", "procedure": "as §1"}, "[8]": {"target": "pneumococcal polysaccharide Pn15B", "procedure": "as §1"}, "[9]": {"target": "pneumococcal polysaccharide Pn15C", "procedure": "as §1"}, "[10]": {"target": "pneumococcal polysaccharide Pn15F", "procedure": "as §1"}, "[11]": {"target": "pneumococcal polysaccharide Pn16A", "procedure": "as §1"}, "[12]": {"target": "pneumococcal polysaccharide Pn16F", "procedure": "as §1"}, "[13]": {"conditions": "antibody concentration 2.8593 ng/mL"}, "[14]": {"conditions": "antibody concentration 15.2894 ng/mL"}, "[15]": {"conditions": "antibody concentration 81.7561 ng/mL"}, "[16]": {"conditions": "antibody concentration 437.17 ng/mL"}, "[17]": {"conditions": "antibody concentration 2337.65 ng/mL"}, "[18]": {"conditions": "antibody concentration 12500 ng/mL"}, "[19]": {"conditions": "antibody concentration 0.1 ng/mL"}, "[20]": {"conditions": "antibody concentration 0.534724 ng/mL"}}, "note": "The other results are listed elsewhere or left out. Only a few entries rise above the background.", "data": [{"binder": "B1", "values": [{"measurement": "fluorescence intensity", "setting": "[1]; [13]", "result": 14, "unit": "MFI"}, {"measurement": "fluorescence intensity", "setting": "[1]; [14]", "result": 14.8, "unit": "MFI"}, {"measurement": "fluorescence intensity", "setting": "[1]; [15]", "result": 15.5, "unit": "MFI"}, {"measurement": "fluorescence intensity", "setting": "[1]; [16]", "result": 14, "unit": "MFI"}, {"measurement": "fluorescence intensity", "setting": "[1]; [17]", "result": 14.5, "unit": "MFI"}, {"measurement": "fluorescence intensity", "setting": "[1]; [18]", "result": 20, "unit": "MFI"}, {"measurement": "fluorescence intensity", "setting": "[2]; [19]", "result": 15, "unit": "MFI"}, {"measurement": "fluorescence intensity", "setting": "[2]; [20]", "result": 15.5, "unit": "MFI"}, {"measurement": "fluorescence intensity", "setting": "[2]; [13]", "result": 17, "unit": "MFI"}, {"measurement": "fluorescence intensity", "setting": "[2]; [14]", "result": 15, "unit": "MFI"}, {"measurement": "fluorescence intensity", "setting": "[2]; [15]", "result": 15, "unit": "MFI"}, {"measurement": "fluorescence intensity", "setting": "[2]; [16]", "result": 14.8, "unit": "MFI"}, {"measurement": "fluorescence intensity", "setting": "[2]; [17]", "result": 18, "unit": "MFI"}, {"measurement": "fluorescence intensity", "setting": "[2]; [18]", "result": 30.5, "unit": "MFI"}, {"measurement": "fluorescence intensity", "setting": "[3]; [19]", "result": 19, "unit": "MFI"}, {"measurement": "fluorescence intensity", "setting": "[3]; [20]", "result": 16, "unit": "MFI"}, {"measurement": "fluorescence intensity", "setting": "[3]; [13]", "result": 16.5, "unit": "MFI"}, {"measurement": "fluorescence intensity", "setting": "[3]; [14]", "result": 15.5, "unit": "MFI"}, {"measurement": "fluorescence intensity", "setting": "[3]; [15]", "result": 15.8, "unit": "MFI"}, {"measurement": "fluorescence intensity", "setting": "[3]; [16]", "result": 15.5, "unit": "MFI"}, {"measurement": "fluorescence intensity", "setting": "[3]; [17]", "result": 18.5, "unit": "MFI"}, {"measurement": "fluorescence intensity", "setting": "[3]; [18]", "result": 28.5, "unit": "MFI"}, {"measurement": "fluorescence intensity", "setting": "[4]; [19]", "result": 18.5, "unit": "MFI"}, {"measurement": "fluorescence intensity", "setting": "[4]; [20]", "result": 16.5, "unit": "MFI"}, {"measurement": "fluorescence intensity", "setting": "[4]; [13]", "result": 18, "unit": "MFI"}, {"measurement": "fluorescence intensity", "setting": "[4]; [14]", "result": 20, "unit": "MFI"}, {"measurement": "fluorescence intensity", "setting": "[4]; [15]", "result": 17.5, "unit": "MFI"}, {"measurement": "fluorescence intensity", "setting": "[4]; [16]", "result": 18.5, "unit": "MFI"}, {"measurement": "fluorescence intensity", "setting": "[4]; [17]", "result": 21.2, "unit": "MFI"}, {"measurement": "fluorescence intensity", "setting": "[4]; [18]", "result": 27.5, "unit": "MFI"}, {"measurement": "fluorescence intensity", "setting": "[5]; [19]", "result": 18.8, "unit": "MFI"}, {"measurement": "fluorescence intensity", "setting": "[5]; [20]", "result": 20.5, "unit": "MFI"}, {"measurement": "fluorescence intensity", "setting": "[5]; [13]", "result": 19.5, "unit": "MFI"}, {"measurement": "fluorescence intensity", "setting": "[5]; [14]", "result": 18, "unit": "MFI"}, {"measurement": "fluorescence intensity", "setting": "[5]; [15]", "result": 18.5, "unit": "MFI"}, {"measurement": "fluorescence intensity", "setting": "[5]; [16]", "result": 19.5, "unit": "MFI"}, {"measurement": "fluorescence intensity", "setting": "[5]; [17]", "result": 19.5, "unit": "MFI"}, {"measurement": "fluorescence intensity", "setting": "[5]; [18]", "result": 28, "unit": "MFI"}, {"measurement": "fluorescence intensity", "setting": "[6]; [19]", "result": 13.8, "unit": "MFI"}, {"measurement": "fluorescence intensity", "setting": "[6]; [20]", "result": 15.5, "unit": "MFI"}, {"measurement": "fluorescence intensity", "setting": "[6]; [13]", "result": 15, "unit": "MFI"}, {"measurement": "fluorescence intensity", "setting": "[6]; [14]", "result": 16.2, "unit": "MFI"}, {"measurement": "fluorescence intensity", "setting": "[6]; [15]", "result": 15, "unit": "MFI"}, {"measurement": "fluorescence intensity", "setting": "[6]; [16]", "result": 15.5, "unit": "MFI"}, {"measurement": "fluorescence intensity", "setting": "[6]; [17]", "result": 16.2, "unit": "MFI"}, {"measurement": "fluorescence intensity", "setting": "[6]; [18]", "result": 43, "unit": "MFI"}, {"measurement": "fluorescence intensity", "setting": "[7]; [19]", "result": 13, "unit": "MFI"}, {"measurement": "fluorescence intensity", "setting": "[7]; [20]", "result": 12.5, "unit": "MFI"}, {"measurement": "fluorescence intensity", "setting": "[7]; [13]", "result": 13.5, "unit": "MFI"}, {"measurement": "fluorescence intensity", "setting": "[7]; [14]", "result": 13, "unit": "MFI"}, {"measurement": "fluorescence intensity", "setting": "[7]; [15]", "result": 13.2, "unit": "MFI"}, {"measurement": "fluorescence intensity", "setting": "[7]; [16]", "result": 13, "unit": "MFI"}, {"measurement": "fluorescence intensity", "setting": "[7]; [17]", "result": 15, "unit": "MFI"}, {"measurement": "fluorescence intensity", "setting": "[7]; [18]", "result": 16, "unit": "MFI"}, {"measurement": "fluorescence intensity", "setting": "[8]; [19]", "result": 18.2, "unit": "MFI"}, {"measurement": "fluorescence intensity", "setting": "[8]; [20]", "result": 20, "unit": "MFI"}, {"measurement": "fluorescence intensity", "setting": "[8]; [13]", "result": 19.2, "unit": "MFI"}, {"measurement": "fluorescence intensity", "setting": "[8]; [14]", "result": 18.5, "unit": "MFI"}, {"measurement": "fluorescence intensity", "setting": "[8]; [15]", "result": 20.2, "unit": "MFI"}, {"measurement": "fluorescence intensity", "setting": "[8]; [16]", "result": 21, "unit": "MFI"}, {"measurement": "fluorescence intensity", "setting": "[8]; [17]", "result": 21, "unit": "MFI"}, {"measurement": "fluorescence intensity", "setting": "[8]; [18]", "result": 25.5, "unit": "MFI"}, {"measurement": "fluorescence intensity", "setting": "[9]; [19]", "result": 18.5, "unit": "MFI"}, {"measurement": "fluorescence intensity", "setting": "[9]; [20]", "result": 19, "unit": "MFI"}, {"measurement": "fluorescence intensity", "setting": "[9]; [13]", "result": 17.5, "unit": "MFI"}, {"measurement": "fluorescence intensity", "setting": "[9]; [14]", "result": 16, "unit": "MFI"}, {"measurement": "fluorescence intensity", "setting": "[9]; [15]", "result": 16.5, "unit": "MFI"}, {"measurement": "fluorescence intensity", "setting": "[9]; [16]", "result": 20.8, "unit": "MFI"}, {"measurement": "fluorescence intensity", "setting": "[9]; [17]", "result": 18.5, "unit": "MFI"}, {"measurement": "fluorescence intensity", "setting": "[9]; [18]", "result": 22, "unit": "MFI"}, {"measurement": "fluorescence intensity", "setting": "[10]; [19]", "result": 17.2, "unit": "MFI"}, {"measurement": "fluorescence intensity", "setting": "[10]; [20]", "result": 17.5, "unit": "MFI"}, {"measurement": "fluorescence intensity", "setting": "[10]; [13]", "result": 17.5, "unit": "MFI"}, {"measurement": "fluorescence intensity", "setting": "[10]; [14]", "result": 17.5, "unit": "MFI"}, {"measurement": "fluorescence intensity", "setting": "[10]; [15]", "result": 18, "unit": "MFI"}, {"measurement": "fluorescence intensity", "setting": "[10]; [16]", "result": 18.8, "unit": "MFI"}, {"measurement": "fluorescence intensity", "setting": "[10]; [17]", "result": 18, "unit": "MFI"}, {"measurement": "fluorescence intensity", "setting": "[10]; [18]", "result": 25.5, "unit": "MFI"}, {"measurement": "fluorescence intensity", "setting": "[11]; [19]", "result": 16, "unit": "MFI"}, {"measurement": "fluorescence intensity", "setting": "[11]; [20]", "result": 14.5, "unit": "MFI"}, {"measurement": "fluorescence intensity", "setting": "[11]; [13]", "result": 13, "unit": "MFI"}, {"measurement": "fluorescence intensity", "setting": "[11]; [14]", "result": 14, "unit": "MFI"}, {"measurement": "fluorescence intensity", "setting": "[11]; [15]", "result": 15, "unit": "MFI"}, {"measurement": "fluorescence intensity", "setting": "[11]; [16]", "result": 15, "unit": "MFI"}, {"measurement": "fluorescence intensity", "setting": "[11]; [17]", "result": 16.5, "unit": "MFI"}, {"measurement": "fluorescence intensity", "setting": "[11]; [18]", "result": 20.5, "unit": "MFI"}, {"measurement": "fluorescence intensity", "setting": "[12]; [19]", "result": 25.5, "unit": "MFI"}, {"measurement": "fluorescence intensity", "setting": "[12]; [20]", "result": 23.8, "unit": "MFI"}, {"measurement": "fluorescence intensity", "setting": "[12]; [13]", "result": 25.8, "unit": "MFI"}, {"measurement": "fluorescence intensity", "setting": "[12]; [14]", "result": 23.5, "unit": "MFI"}]}]}
